Measured data: PubChem BioAssay AID1259274 (Sanger Institute, 2017)
The whole screen tested 794 reagents; shown is an unselected part. In the full data, 11 (1.4%) were called active. 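Calls rest on knock-down without drug only; synergy scores with anchor drugs were not used for the essential call.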 Unmarked entries are inactive. No viability above 1 is reported: the scale is capped. Not given: the amount of reagent, the time to read-out.

Purpose: 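siRNA screen of kinases for partners that act in synergy with targeted drugs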 (primary screen)
Cell system: human RKO colorectal cancer cells
Reagents: siRNA pool against human genes
Conditions: anchor drugs BYL719 at 1 µM, cetuximab at 5 µg/ml or trametinib at 10 nM; DMSO vehicle as the no-drug arm
Measurement: 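Viability of cells versus control pool 2 (non-targeting) averaged across replicates; knock-down-only robust z-score; for every anchor drug (BYL719, cetuximab, trametinib) a synergy score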
Reading the numbers: viability z-score, siRNA alone: higher = more viable cells; low values mean essential gene; viability, siRNA alone, vehicle: higher = more viable cells; synergy score with BYL719 and synergy score with Trametinib and synergy score with Cetuximab: higher = stronger combined killing with the drug
Call rule: 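a single knock-down scoring under -3 on the robust z-score, meaning fewer cells, counts as essential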
Calls: active = essential when knocked down alone; inactive = no change alone

gene symbol	viability z-score, siRNA alone	viability, siRNA alone, vehicle (fraction of control)	synergy score with BYL719	synergy score with Trametinib	synergy score with Cetuximab
GAK	-0.78	0.831	-0.00754	-0.3	0.00256
PKN3	-0.262	0.876	-0.246	-0.0914	-0.124
ASPM	-0.172	0.883	0.0334	-0.0539	-0.0182
CDKL5	1.04	0.987	-0.0785	-0.147	-0.0129
CSNK1E	0.22	0.917	-0.106	-0.368	-0.0297
NRAS	0.763	0.963	-0.054	-0.213	-0.0326
DUSP21	1.19	1	-0.0665	0.0103	0.0493
NPR2	0.739	0.961	-0.0473	-0.168	-0.0387
GRK2	-0.42	0.862	-0.0112	-0.0659	-0.0791
AKT3	-2.15	0.714	-0.121	-0.163	-0.135
CSNK1A1	-0.284	0.874	0.0556	0.00863	0.0399
CDK11B	-2.13	0.715	-0.0991	-0.174	-0.137
DLG4	1.17	0.998	0.0445	-0.131	0.0183
ULK2	-0.0826	0.891	-0.0715	-0.102	0.0525
MAP2K6	1.19	1	0.00208	-0.152	0
FXR1	-0.744	0.834	-0.126	-0.161	-0.039
DYRK4	0.375	0.93	-0.0816	-0.0512	0.018
IPMK	-0.0779	0.891	0.000969	-0.188	-0.109
AK7	-1.89	0.736	-0.244	-0.425	-0.183
PMVK	-0.0764	0.891	-0.0566	-0.219	-0.0822
OXSR1	0.393	0.932	-0.0175	-0.163	-0.0529
ALPK1	-0.293	0.873	0.0162	-0.146	-0.0881

Entries above whose gene name starts with C or c:
gene symbol	viability z-score, siRNA alone	viability, siRNA alone, vehicle (fraction of control)	synergy score with BYL719	synergy score with Trametinib	synergy score with Cetuximab
CDKL5	1.04	0.987	-0.0785	-0.147	-0.0129
CSNK1E	0.22	0.917	-0.106	-0.368	-0.0297
CSNK1A1	-0.284	0.874	0.0556	0.00863	0.0399
CDK11B	-2.13	0.715	-0.0991	-0.174	-0.137

The listing continues.
gene symbol	viability z-score, siRNA alone	viability, siRNA alone, vehicle (fraction of control)	synergy score with BYL719	synergy score with Trametinib	synergy score with Cetuximab
PCK2	1.07	0.99	0.0473	-0.0267	0.0835
CAD	-0.968	0.815	-0.039	-0.146	-0.0928
VRK2	0.394	0.932	-0.00966	-0.174	-0.0682
IGF2R	1.19	1	0.0225	-0.147	0.0779
MYLK3	1.05	0.988	0.132	-0.0823	0.073
PAK5	0.378	0.93	-0.0354	-0.139	0.0155
WNK2	1.19	1	-0.0507	-0.317	0
CHEK2	0.538	0.944	-0.0613	-0.137	0.00151
ROR2	-0.785	0.831	-0.213	-0.143	-0.128
CLK3	-0.809	0.829	-0.136	-0.188	-0.0633
SGK1	0.203	0.915	-0.111	-0.18	-0.0546
PAK2	0.0641	0.904	0.03	-0.148	-0.0965
